The inconclusive results got no clear call from the source; some entries with a clear call stand among them for comparison. Potencies of inconclusive entries are doubtful fits and often do not repeat. Active and inactive are the calls of the source. Calls follow the shape of the dose curve; as a rule, active = well fitted curve in the direction sought with a large enough effect; inconclusive = small, poorly fitted or top-dose-only effect, or another doubt; inactive = no such curve, though single readings can be large; an effect the other way counts as inactive or inconclusive.
How the values were obtained:
[1] = target: Retinaldehyde dehydrogenase 3 (Homo sapiens) (UniProt P47895); assay: qHTS for Inhibitors of the Aldehyde Dehydrogenase Family (ALDH1A3) Validation screen (AID 2061312); details: ALDH1A3 enzyme inhibition qHTS validation, fluorescence; activity change, negative = inhibition: at 84.7 µM (top of the series); also: nearly all actives have a fitted effect of over 45% in size; as to activity change, negative = inhibition: % is scaled to controls: 0 for no effect and ±100 for the full control effect
[2] = BET inhibitor-based combinations targeting novel dependencies in MECOM-rearranged (r) AML: OCI-AML3 cell line (AID 2202232); details: CellTiter-Glo luminescence, 48 h; Potency: OCI-AML3 viability; viability (% of control): at 46 µM (top of the series); also: nearly all actives have a fitted effect of over 35% in size;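 as to viability (% of control): plate controls were DMSO vehicle wells for no effect and wells without cells for full effect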
Method in brief: (§1)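 500 cells/well; 11-pt dose curve; 48 h, standard incubator; CellTiter-Glo luminescence after 15 min RT; DMSO/empty-well normalization; AUC plus Z-AUC (mean-centered within each line).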

[3] = BET inhibitor-based combinations targeting novel dependencies in MECOM-rearranged (r) AML: MV-4-11 cell line (AID 2202233); details: MV-4-11 AML viability, CellTiter-Glo luminescence, 48 h; viability, % of control: at 46 µM (top of the series) unless noted; also: nearly all actives have a fitted effect of over 45% in size;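 as to viability, % of control: plate controls were DMSO for no effect and blank wells for full effect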
Method in brief: (§2)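 Cells were plated at 500 per well and exposed to each drug across an 11-point dose range for 48 hr at standard incubator conditions. Viability was read by CellTiter-Glo luminescence, and activity was expressed as AUC and per-cell-line Z-transformed AUC.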

[4] = BET inhibitor-based combinations targeting novel dependencies in MECOM-rearranged (r) AML: HNT-34 cell line (AID 2202234); details: HNT-34 AML viability, CellTiter-Glo luminescence, 48 h; series mostly up to 46 µM; also: nearly all actives have a fitted effect of over 35% in size;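 as to viability (% of control): plate controls were vehicle wells for no effect and cell-free wells for full effect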
Method in brief: as §2

[5] = BET inhibitor-based combinations targeting novel dependencies in MECOM-rearranged (r) AML: SET-2 cell line (AID 2202231); details: SET-2 AML cells viability, CellTiter-Glo luminescence, 48 h; viability: active compounds read low, concentration not given here; also: nearly all actives have a fitted effect of over 35% in size;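 as to viability: plate controls were DMSO treated cells for no effect and wells without cells for full effect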
Method in brief: as §1

[6] = BET inhibitor-based combinations targeting novel dependencies in MECOM-rearranged (r) AML: AML-191 cell line (AID 2202236; also: nearly all actives have a fitted effect of over 35% in size;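 as to viability (% of control): plate controls were vehicle wells for no effect and wells without cells for full effect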); details: AML-191 viability, CellTiter-Glo luminescence, 48 h; series mostly up to 46 µM
Method in brief: as §1

[7] = BET inhibitor-based combinations targeting novel dependencies in MECOM-rearranged (r) AML: UCSD-AML1 cell line (AID 2202235); details: UCSD-AML1 AML cells viability, CellTiter-Glo, 48 h; viability (% of control): at 46 µM (top of the series); also: nearly all actives have a fitted effect of over 40% in size;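 as to viability (% of control): plate controls were DMSO vehicle wells for no effect and blank wells for full effect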
Method in brief: as §2

[8] = BET inhibitor-based combinations targeting novel dependencies in MECOM-rearranged (r) AML: AML-194 cell line (AID 2202237; also: nearly all actives have a fitted effect of over 40% in size;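 as to viability (% of control): plate controls were vehicle wells for no effect and wells without cells for full effect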); details: AML-194 (MECOM-r AML) viability, CellTiter-Glo, 48 h; series mostly up to 46 µM
Method in brief: as §1
Potency is read from the fitted curve at half-maximal effect.

Structure (SMILES)	Potency [1]	Potency [2]	Potency [3]	Potency [4]	Potency [5]	Potency [6]	activity change, negative = inhibition [1]	Potency [7]	Potency [8]	viability [5]
Cn1ccc2cc3c(cc21)CCN3C(=O)Nc1cccnc1	inconclusive: 2.51 µM [inhibitor, full curve, poor fit]	inconclusive: 1.86 µM [inhibitor, partial curve, poor fit]	inactive							
O=C(/C=C\n1cnc(-c2cc(C(F)(F)F)cc(C(F)(F)F)c2)n1)N1CC(F)(F)C1	inactive	active: 2.63 µM		active: 5.25 µM						
Cc1cccc(Nc2nc(-c3ccncc3)cs2)c1	inconclusive: 3.98 µM [inhibitor, full curve, poor fit]	inactive	inconclusive: 18.6 µM [inhibitor, partial curve]	inconclusive: 37.2 µM [inhibitor, single point]	inconclusive: 23.5 µM [inhibitor, single point]	inconclusive: 29.5 µM [inhibitor, single point]				
CCOc1cc(C(=O)Nc2ccc(Cl)c(-c3nc4ccccc4[nH]3)c2)cc(OCC)c1OCC		inconclusive: 37.2 µM [inhibitor, single point]		active: 14.8 µM			inconclusive: -36.2% [inhibitor]	inconclusive: 23.5 µM [inhibitor, partial curve, poor fit]		
Cc1cc(C(C)(C)C)cc(C)c1CC1=NCCN1	inactive	inconclusive: 26.3 µM [inhibitor, partial curve, poor fit]		inconclusive: 26.3 µM [inhibitor, single point]	inconclusive: 37.2 µM [inhibitor, single point]	inconclusive: 23.5 µM [inhibitor, single point]		inconclusive: 20.9 µM [inhibitor, partial curve]		
O=C(Nc1cccnc1)N1CCC(Cc2cccc(Oc3ccc(C(F)(F)F)cn3)c2)CC1	inactive	inconclusive: 5.9 µM [inhibitor, full curve]	active: 5.9 µM	inconclusive: 18.6 µM [inhibitor, partial curve]	inconclusive: 10.5 µM [inhibitor, partial curve]			active: 26.3 µM	inconclusive: 23.5 µM [inhibitor, single point]	
COCCCOc1ccnc(CS(=O)c2nc3ccccc3[nH]2)c1C (stereo not given)	inactive	inactive	inconclusive: 11.8 µM [inhibitor, partial curve, poor fit]		inconclusive: 10.5 µM [inhibitor, partial curve, poor fit]			inactive		
CS(=O)(=O)c1ccc(C(=O)Nc2ccc(Cl)c(-c3ccccn3)c2)c(Cl)c1	inconclusive: 12.6 µM [inhibitor, full curve, poor fit]	inactive								
C[C@@H](N)C1CCC(C(=O)Nc2ccncc2)CC1 (stereo not given in full)	inconclusive: 2.82 µM [inhibitor, full curve, poor fit]	inactive	inconclusive: 20.9 µM [inhibitor, single point]						inactive	
O=C(Nc1cccc(C(F)(F)F)c1)Nc1cc(S(=O)(=O)NC2CC2)ccc1-c1ccsc1	inactive	inconclusive: 20.9 µM [inhibitor, partial curve]	active: 26.3 µM	inconclusive: 33.2 µM [inhibitor, single point]	inconclusive: 37.2 µM [inhibitor, single point]	inconclusive: 23.5 µM [inhibitor, partial curve]		inconclusive: 26.3 µM [inhibitor, single point]	inconclusive: 20.9 µM [inhibitor, partial curve]	
CC[C@H](C)C(=O)O[C@H]1CCC=C2C=C[C@H](C)[C@H](CC[C@@H]3C[C@@H](O)CC(=O)O3)[C@H]21	inactive		inconclusive: 18.6 µM [inhibitor, partial curve]	inconclusive: 18.6 µM [inhibitor, partial curve]	inconclusive: 20.9 µM [inhibitor, single point]	inconclusive: 10.5 µM [inhibitor, partial curve]		inconclusive: 14.8 µM [inhibitor, partial curve]	inconclusive: 18.6 µM [inhibitor, partial curve]	
NC(=O)OCC(COC(N)=O)c1ccccc1	inconclusive: 31.6 µM [inhibitor, single point]	inactive	inactive			inactive		inactive	inactive	inactive: 119%
CCCCOc1nc(N)c2c(n1)N(Cc1cccc(CN3CCCC3)c1)CC(=O)N2	inactive	inconclusive: 33.2 µM [inhibitor, partial curve, poor fit]	inconclusive: 14.8 µM [inhibitor, partial curve]	inconclusive: 33.2 µM [inhibitor, single point]		inactive			inactive	inactive: 111%
Cc1cc(Nc2ncnc3ccc(-c4ccc(CNCCS(C)(=O)=O)o4)cc23)ccc1Oc1ccn2ncnc2c1	inactive	inconclusive: 3.32 µM [inhibitor, partial curve, poor fit]	inconclusive: 8.33 µM [inhibitor, partial curve, poor fit]			inactive		inconclusive: 23.5 µM [inhibitor, partial curve, poor fit]		
Nc1ncnc2c1c(-c1cccc(OCc3ccccc3)c1)cn2C1CC(CN2CCC2)C1 (stereo not given)	inactive	inconclusive: 8.33 µM [inhibitor, full curve, poor fit]	inconclusive: 2.63 µM [inhibitor, full curve]					inconclusive: 5.25 µM [inhibitor, partial curve, poor fit]		
C[C@@H](c1ccc2nccn2c1)n1nnc2ncc(-c3cnn(C)c3)nc21	inconclusive: 10 µM [inhibitor, partial curve, poor fit]			inconclusive: 23.5 µM [inhibitor, partial curve, poor fit]	inconclusive: 26.3 µM [inhibitor, single point]					
c1cc(OCCN2CCCCC2)cc(-c2n[nH]c3ccc(-c4ncn[nH]4)cc23)c1	inactive	inconclusive: 14.8 µM [inhibitor, partial curve]	active: 1.86 µM	active: 14.8 µM	inconclusive: 23.5 µM [inhibitor, partial curve]	inconclusive: 11.8 µM [inhibitor, partial curve]			inconclusive: 14.8 µM [inhibitor, partial curve]	
O=C(NOCC(O)CO)c1ccc(F)c(F)c1Nc1ccc(I)cc1F (stereo not given)	inconclusive: 79.4 µM [inhibitor, partial curve, poor fit]	inconclusive: 0.0118 µM [inhibitor, full curve]	inconclusive: 0.0332 µM [inhibitor, full curve]			inconclusive: 0.0235 µM [inhibitor, full curve]			inconclusive: 0.296 µM [inhibitor, full curve]	
CCS(=O)(=O)N1CCC([C@@H](C)n2c(C)c(C(=O)NCc3c(OC)cc(C)[nH]c3=O)c3ccccc32)CC1	inconclusive: 50.1 µM [inhibitor, partial curve, poor fit]	active: 5.9 µM							inactive	inactive: 115%
CCN(CC)C(=S)SSC(=S)N(CC)CC	inconclusive: 0.282 µM [inhibitor, full curve]	active: 0.332 µM		active: 0.332 µM	inconclusive: 0.263 µM [inhibitor, full curve, poor fit]			inconclusive: 0.296 µM [inhibitor, full curve, poor fit]		
CCCCN(CCCC)C(=O)CN1C[C@H](c2ccc3c(c2)OCO3)[C@@H](C(=O)O)[C@@H]1c1ccc(OC)cc1	inconclusive: 35.5 µM [inhibitor, partial curve]	inactive	inactive							
Cc1cc(C)cc(NC(=O)Cc2ccc(OC(C)(C)C(=O)O)cc2)c1	inactive	inactive		inactive	inconclusive: 37.2 µM [inhibitor, single point]	inactive				
Cn1cnc2c1c(=O)[nH]c(=O)n2C	inactive	inactive		inactive						
N[C@@H](Cc1ccc(O)c(O)c1)C(=O)O	inconclusive: 2.24 µM [inhibitor, full curve, poor fit]			inactive		inactive		inconclusive: 33.2 µM [inhibitor, single point]		inactive: 105%
FC(F)(F)c1ccc(Nc2nc3ccc(Oc4ccnc(-c5ncc(C(F)(F)F)[nH]5)c4)cc3[nH]2)cc1	inconclusive: 1.58 µM [inhibitor, full curve, poor fit]	inconclusive: 13.2 µM [inhibitor, partial curve, poor fit]	inconclusive: 3.32 µM [inhibitor, full curve, poor fit]	inconclusive: 13.2 µM [inhibitor, partial curve, poor fit]		inconclusive: 14.8 µM [inhibitor, partial curve, poor fit]		inconclusive: 29.5 µM [inhibitor, single point]	inconclusive: 26.3 µM [inhibitor, partial curve, poor fit]	

Reference: PubChem BioAssay (NCATS)
